The text below walks through data of patent US20190218170A1, “BRANCHED TRIALKYLAMINE PRECURSORS, INTERMEDIATES, PRODUCTS MADE THEREFROM AND PROCESSES OF MANUFACTURE” (priority 2018, published 2019).

A short description of data set [1]: Stain removal in cold water, brightness L*. The conditions noted are these: Red lipstick; additive 0.05% active in wash solution of 12% LAE7 base formulation; 20° C. On the procedure:
Amine oxides with linear and branched hydrophobes were compared in a screen for stain removal in cold water. Simple laundry liquid formulations were made that included only surfactants and builder.
Standard stain swatches were purchased from Testfabrics, Inc. (West Pittston, Pa.). STC/CFT PC-S-216 is diluted red lipstick on poly/cotton (65/35), and STC/CFT PC-S-132 is high discriminative sebum (synthetic) with pigment on poly/cotton, both made by Center for Testmaterials BV (CFT; The Netherlands). The swatches were pre-cut into 2 inch squares. The test formulation was diluted with DI water to 0.06% total surfactant to make the wash solution. Additives were added at a final concentration of 0.05% active in the wash solution. Stained fabric swatches were added to the wash solution, washed and rinsed at 20° C., and air-dried. The average swatch brightness (L*) for each treatment, and standard deviation, are reported for 3 replicates. […] All treatments are brighter than the untreated stain swatches. The nonionics NPE and LAE7 removed the lipstick and sebum stains to the same brightness.

A short description of data set [2]: Stain removal in cold water, brightness L*. The conditions noted are these: Sebum; additive 0.05% active in wash solution of 12% LAE7 base formulation; 20° C.

With `CCCCCCCCCCCC[N+](C)(C)[O-]` [LAO, N,N-dimethyl laurylamine oxide, reference compound], the “avg L*” value turned out to be 74.8 in data set [1] and 72.8 in data set [2].
